Experimental data as given in US20220016257A1.
These are yes or no findings as the source states them, for the method shown. Some results given as binding are weak or reduced against the parent protein; the word gives no strength.

T1: EC4-deleted human CDH6 (EC4 deletion mutant, on cells) (human) (UniProt P55285)
T1 sequence: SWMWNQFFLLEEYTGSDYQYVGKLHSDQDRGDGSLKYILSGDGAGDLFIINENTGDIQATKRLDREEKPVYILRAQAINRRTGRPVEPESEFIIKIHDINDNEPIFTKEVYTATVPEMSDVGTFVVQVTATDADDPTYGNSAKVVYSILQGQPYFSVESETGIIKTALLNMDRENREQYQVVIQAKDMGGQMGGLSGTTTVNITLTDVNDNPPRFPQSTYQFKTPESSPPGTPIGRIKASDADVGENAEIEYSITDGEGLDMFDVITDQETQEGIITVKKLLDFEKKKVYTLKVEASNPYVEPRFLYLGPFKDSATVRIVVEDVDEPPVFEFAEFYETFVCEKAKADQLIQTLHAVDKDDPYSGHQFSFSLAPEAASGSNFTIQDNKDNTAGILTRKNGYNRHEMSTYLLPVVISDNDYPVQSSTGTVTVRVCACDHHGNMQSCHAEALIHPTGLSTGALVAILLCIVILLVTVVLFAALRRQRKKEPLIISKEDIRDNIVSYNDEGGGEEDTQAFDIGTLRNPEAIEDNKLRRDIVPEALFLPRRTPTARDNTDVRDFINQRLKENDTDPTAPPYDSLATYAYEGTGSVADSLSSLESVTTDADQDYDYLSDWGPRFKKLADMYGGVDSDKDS

T2: EC2-deleted human CDH6 (EC2 deletion mutant, on cells) (human) (UniProt P55285)
T2 sequence: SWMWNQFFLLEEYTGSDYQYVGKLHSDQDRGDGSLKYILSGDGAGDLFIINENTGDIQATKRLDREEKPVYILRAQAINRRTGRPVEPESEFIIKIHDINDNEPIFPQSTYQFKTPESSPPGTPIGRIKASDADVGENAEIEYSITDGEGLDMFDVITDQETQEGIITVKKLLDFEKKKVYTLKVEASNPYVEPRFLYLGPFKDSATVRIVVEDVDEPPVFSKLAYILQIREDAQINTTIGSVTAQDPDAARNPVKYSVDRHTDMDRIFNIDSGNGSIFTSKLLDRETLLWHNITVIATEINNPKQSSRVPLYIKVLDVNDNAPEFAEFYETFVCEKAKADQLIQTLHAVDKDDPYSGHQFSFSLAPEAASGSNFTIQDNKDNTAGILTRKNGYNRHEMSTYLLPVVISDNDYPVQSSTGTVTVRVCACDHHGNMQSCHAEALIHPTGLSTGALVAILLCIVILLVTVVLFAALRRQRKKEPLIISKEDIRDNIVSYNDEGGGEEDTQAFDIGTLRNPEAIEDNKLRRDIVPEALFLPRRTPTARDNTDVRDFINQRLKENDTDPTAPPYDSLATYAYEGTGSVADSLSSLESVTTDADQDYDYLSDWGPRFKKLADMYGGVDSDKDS

T3: EC1-deleted human CDH6 (EC1 deletion mutant, on cells) (human) (UniProt P55285)
T3 sequence: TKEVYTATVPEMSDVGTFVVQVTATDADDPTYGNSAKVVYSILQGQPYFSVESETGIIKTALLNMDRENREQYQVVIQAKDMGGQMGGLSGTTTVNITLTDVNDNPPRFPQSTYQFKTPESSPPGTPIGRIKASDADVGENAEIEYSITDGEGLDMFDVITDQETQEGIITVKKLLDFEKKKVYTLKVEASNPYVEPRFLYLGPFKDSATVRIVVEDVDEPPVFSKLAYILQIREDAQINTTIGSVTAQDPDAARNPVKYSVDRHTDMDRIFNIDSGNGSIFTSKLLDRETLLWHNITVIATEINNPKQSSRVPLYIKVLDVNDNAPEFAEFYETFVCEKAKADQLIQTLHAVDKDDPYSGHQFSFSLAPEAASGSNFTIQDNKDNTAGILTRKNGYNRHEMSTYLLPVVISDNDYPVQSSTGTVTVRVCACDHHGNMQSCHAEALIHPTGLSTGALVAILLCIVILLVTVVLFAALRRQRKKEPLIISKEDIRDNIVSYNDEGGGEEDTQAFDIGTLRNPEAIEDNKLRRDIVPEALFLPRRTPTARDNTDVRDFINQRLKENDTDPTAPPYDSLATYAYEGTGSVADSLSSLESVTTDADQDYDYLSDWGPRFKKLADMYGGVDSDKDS

T4: EC5-deleted human CDH6 (EC5 deletion mutant, on cells) (human) (UniProt P55285)
T4 sequence: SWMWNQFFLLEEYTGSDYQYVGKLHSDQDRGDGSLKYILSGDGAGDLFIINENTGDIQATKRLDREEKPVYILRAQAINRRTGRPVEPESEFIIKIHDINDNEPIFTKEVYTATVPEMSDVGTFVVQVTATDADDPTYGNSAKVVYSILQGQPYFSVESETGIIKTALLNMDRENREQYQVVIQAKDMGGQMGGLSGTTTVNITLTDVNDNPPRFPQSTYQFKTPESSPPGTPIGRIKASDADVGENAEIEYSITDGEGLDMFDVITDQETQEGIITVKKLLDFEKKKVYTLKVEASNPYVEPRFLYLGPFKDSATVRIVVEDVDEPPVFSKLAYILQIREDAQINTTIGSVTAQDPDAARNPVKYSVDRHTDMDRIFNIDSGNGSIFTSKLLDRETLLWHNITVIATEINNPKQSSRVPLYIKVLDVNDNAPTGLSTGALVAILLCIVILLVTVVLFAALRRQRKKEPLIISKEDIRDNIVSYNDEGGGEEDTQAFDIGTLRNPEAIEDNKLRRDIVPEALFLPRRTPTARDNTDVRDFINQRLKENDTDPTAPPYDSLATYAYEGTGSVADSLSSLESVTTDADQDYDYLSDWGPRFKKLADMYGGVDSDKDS


Columns and labels:
[1] = biological target: T1, EC4-deleted human CDH6 (EC4 deletion mutant, on cells) (human); experiment: flow cytometry, 293α cells transiently expressing EC4-deleted hCDH6 (open) against untransfected cells (shaded), APC anti-human IgG F(ab')2
[2] = biological target: T1, EC4-deleted human CDH6 (EC4 deletion mutant, on cells) (human); experiment: flow cytometry on transfected 293α cells
[3] = biological target: T2, EC2-deleted human CDH6 (EC2 deletion mutant, on cells) (human); experiment: flow cytometry on transfected 293α cells
[4] = biological target: EC3-deleted human CDH6 (EC3 deletion mutant, on cells) (human) (UniProt P55285); experiment: flow cytometry on transfected 293α cells
[5] = biological target: T3, EC1-deleted human CDH6 (EC1 deletion mutant, on cells) (human); experiment: flow cytometry on transfected 293α cells
[6] = biological target: T2, EC2-deleted human CDH6 (EC2 deletion mutant, on cells) (human); experiment: flow cytometry, 293α cells transiently expressing EC2-deleted hCDH6 (open) against untransfected cells (shaded), APC anti-human IgG F(ab')2
[7] = biological target: T3, EC1-deleted human CDH6 (EC1 deletion mutant, on cells) (human); experiment: flow cytometry, 293α cells transiently expressing EC1-deleted hCDH6 (open) against untransfected cells (shaded), APC anti-human IgG F(ab')2
[8] = biological target: EC3-deleted human CDH6 (EC3 deletion mutant, on cells) (human) (UniProt P55285); experiment: flow cytometry, 293α cells transiently expressing EC3-deleted hCDH6 (open) against untransfected cells (shaded), APC anti-human IgG F(ab')2
[9] = biological target: T4, EC5-deleted human CDH6 (EC5 deletion mutant, on cells) (human); experiment: flow cytometry, 293α cells transiently expressing EC5-deleted hCDH6 (open) against untransfected cells (shaded), antibody 20 nM, anti-rat IgG-FITC [6]
[10] = biological target: T1, EC4-deleted human CDH6 (EC4 deletion mutant, on cells) (human); experiment: flow cytometry on transfected 293α cells, antibody 20 nM
[11] = biological target: T2, EC2-deleted human CDH6 (EC2 deletion mutant, on cells) (human); experiment: as above
[12] = biological target: T4, EC5-deleted human CDH6 (EC5 deletion mutant, on cells) (human); experiment: as above
[13] = biological target: T3, EC1-deleted human CDH6 (EC1 deletion mutant, on cells) (human); experiment: as above
[14] = biological target: T2, EC2-deleted human CDH6 (EC2 deletion mutant, on cells) (human); experiment: flow cytometry, 293α cells transiently expressing EC2-deleted hCDH6 (open) against untransfected cells (shaded), antibody 20 nM, anti-rat IgG-FITC [3]
[15] = biological target: T1, EC4-deleted human CDH6 (EC4 deletion mutant, on cells) (human); experiment: flow cytometry, 293α cells transiently expressing EC4-deleted hCDH6 (open) against untransfected cells (shaded), antibody 20 nM, anti-rat IgG-FITC [5]
[16] = biological target: T3, EC1-deleted human CDH6 (EC1 deletion mutant, on cells) (human); experiment: flow cytometry, 293α cells transiently expressing EC1-deleted hCDH6 (open) against untransfected cells (shaded), antibody 20 nM, anti-rat IgG-FITC [2]
[17] = biological target: T4, EC5-deleted human CDH6 (EC5 deletion mutant, on cells) (human); experiment: flow cytometry on transfected 293α cells
[18] = biological target: T4, EC5-deleted human CDH6 (EC5 deletion mutant, on cells) (human); experiment: flow cytometry, 293α cells transiently expressing EC5-deleted hCDH6 (open) against untransfected cells (shaded), APC anti-human IgG F(ab')2

binding [1]	binding [2]	binding [3]	binding [4]	binding [5]	binding [6]	binding [7]	binding [8]	binding [9]	binding [10]	binding [11]	binding [12]	binding [13]	binding [14]	binding [15]	binding [16]	binding [17]	binding [18]	Binder
binds	binds	binds	binds	binds	binds	binds	binds											anti-CDH6 antibody NOV0712 (antibody, V domains shown) VH: QVQLLESGGGLVQPGGSLRLSCAASGFTFSSHGMHWVRQAPGKGLEWVSVISGSGSNTGYADSVKGRFTISRDNSKNTLYLQMNSLRAEDTAVYYCARQWGSYAFDSWGQGTLVTVSS VL: DIQMTQSPSSLSASVGDRVTITCRASQSISSYLNWYQQKPGKAPKLLIYAVSTLQSGVPSRFSGSGSGTDFTLTISSLQPEDFATYYCQQSGTFPPTTFGQGTKVEIKR
								binds	binds	binds	binds	binds	binds	binds	binds			rat anti-CDH6 monoclonal antibody rG019 (antibody, IgG2b, V domains shown) VH: QVQLQQSGAELVKPGSSVKISCKASGYTFTRNFMHWIKQQPGNGLEWIGWIYCGDGETEYNQKFNGKATLTADRSSSTAYMELSRLTSEDSAVYFCARGVYGGFAGGYFDFWGQGVMVTVSS VL: DIQMTQSPSLLSASVGDRVTLNCKASQNIYKNLAWYQQKLGEGPKLLIYDANTLQTGIPSRFSGSGSGSDFTLTISSLQPEDVATYFCQQYYSGWAFGGVTNLELKRA
binds	binds	binds		binds	binds	binds										binds	binds	humanized anti-CDH6 antibody H02L02 (antibody, human IgG1, kappa, V domains shown) VH: EVQLVQSGAEVKKPGASVKVSCKASGYTFTRNFMHWVRQAPGQGLEWMGWIYPGDGETEYNQKFQGRVTITADRSTSTAYMELSSLRSEDTAVYFCARGVYGGFAGGYFDFWGQGTLVTVSS VL: DIQMTQSPSSLSASVGDRVTITCKASQNIYKNLAWYQQKPGKAPKLLIYDANTLQTGVPSRFSGSGSGSDFTLTISSLQPEDFATYFCQQYYSGWAFGQGTKVEIKR
binds	binds	binds		binds	binds	binds										binds	binds	humanized anti-CDH6 antibody H02L03 (antibody, human IgG1, kappa, V domains shown) VH: EVQLVQSGAEVKKPGASVKVSCKASGYTFTRNFMHWVRQAPGQGLEWMGWIYPGDGETEYNQKFQGRVTITADRSTSTAYMELSSLRSEDTAVYFCARGVYGGFAGGYFDFWGQGTLVTVSS VL: DIQMTQSPSSLSASVGDRVTITCKASQNIYKNLAWYQQKLGEGPKLLIYDANTLQTGVPSRFSGSGSGTDFTLTISSLQPEDFATYYCQQYYSGWAFGQGTKVEIKR
binds	binds	binds		binds	binds	binds										binds	binds	humanized anti-CDH6 antibody H04L02 (antibody, human IgG1, kappa, V domains shown) VH: QVQLVQSGAEVKKPGASVKVSCKASGYTFTRNFMHWIRQAPGQGLEWMGWIYPGDGETEYAQKFQGRVTLTADRSTSTAYMELSSLRSEDTAVYYCARGVYGGFAGGYFDFWGQGTLVTVSS VL: DIQMTQSPSSLSASVGDRVTITCKASQNIYKNLAWYQQKPGKAPKLLIYDANTLQTGVPSRFSGSGSGSDFTLTISSLQPEDFATYFCQQYYSGWAFGQGTKVEIKR
